In patent US20250163140A1:
Positions count from the first letter of the chain named. Names may count otherwise. These are yes or no findings as the source states them, for the method shown. Some results given as binding are weak or reduced against the parent protein; the word gives no strength.

The chains behind the UniProt entries cited, without tags or fusion partners. Residues count along the entry.
UniProt Q9GZV9, residues 25-251: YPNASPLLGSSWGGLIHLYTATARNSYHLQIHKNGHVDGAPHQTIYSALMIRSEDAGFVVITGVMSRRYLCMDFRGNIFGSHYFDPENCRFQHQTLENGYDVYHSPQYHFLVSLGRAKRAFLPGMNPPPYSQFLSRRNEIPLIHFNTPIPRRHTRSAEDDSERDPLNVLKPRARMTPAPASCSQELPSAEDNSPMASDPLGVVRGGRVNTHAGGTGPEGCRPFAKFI

B1: antibody D105A (antibody, human IgG1, V domains shown)
VH: QVQLVQSGAEVKKPGASVKVSCKASGYTFTNHYMHWVRQAPGQGLEWMGIINPISGSTSNAQKFQGRVTMTRDTSTSTVYMELSSLRSEDTAVYYCARDIVDAFAFWGQGTMVTVSS
VL: AIQLTQSPSSLSASVGDRVTITCRASQGISSALVWYQQKPGKAPKLLIYDASSLESGVPSRFSGSGSGTDFTLTISSLQPEDFATYYCQQFNDYFTFGPGTKVDIK
B2: antibody D105E (antibody, human IgG1, V domains shown)
VH: B1 VH with A105E
VL: B1 VL
B3: antibody I100F (antibody, human IgG1, V domains shown)
VH: B1 VH with I100F, A105D
VL: B1 VL
B4: antibody I100K (antibody, human IgG1, V domains shown)
VH: B1 VH with I100K, A105D
VL: B1 VL
B5: antibody I100Q (antibody, human IgG1, V domains shown)
VH: B1 VH with I100Q, A105D
VL: B1 VL
B6: antibody D105V (antibody, human IgG1, V domains shown)
VH: B1 VH with A105V
VL: B1 VL
B7: antibody D105F (antibody, human IgG1, V domains shown)
VH: B1 VH with A105F
VL: B1 VL
B8: antibody D105S (antibody, human IgG1, V domains shown)
VH: B1 VH with A105S
VL: B1 VL
B9: antibody D105G (antibody, human IgG1, V domains shown)
VH: B1 VH with A105G
VL: B1 VL
B10: antibody D105W (antibody, human IgG1, V domains shown)
VH: B1 VH with A105W
VL: B1 VL
B11: antibody I100T (antibody, human IgG1, V domains shown)
VH: B1 VH with I100T, A105D
VL: B1 VL
B12: antibody I100E (antibody, human IgG1, V domains shown)
VH: B1 VH with I100E, A105D
VL: B1 VL
B13: antibody D105I (antibody, human IgG1, V domains shown)
VH: B1 VH with A105I
VL: B1 VL
B14: antibody I100Y (antibody, human IgG1, V domains shown)
VH: B1 VH with I100Y, A105D
VL: B1 VL
B15: antibody D105K (antibody, human IgG1, V domains shown)
VH: B1 VH with A105K
VL: B1 VL
B16: antibody I100M (antibody, human IgG1, V domains shown)
VH: B1 VH with I100M, A105D
VL: B1 VL
B17: antibody I100W (antibody, human IgG1, V domains shown)
VH: B1 VH with I100W, A105D
VL: B1 VL
B18: antibody D105Q (antibody, human IgG1, V domains shown)
VH: B1 VH with A105Q
VL: B1 VL
B19: antibody D105H (antibody, human IgG1, V domains shown)
VH: B1 VH with A105H
VL: B1 VL
B20: antibody D105P (antibody, human IgG1, V domains shown)
VH: B1 VH with A105P
VL: B1 VL
B21: antibody D105L (antibody, human IgG1, V domains shown)
VH: B1 VH with A105L
VL: B1 VL
B22: antibody D105R (antibody, human IgG1, V domains shown)
VH: B1 VH with A105R
VL: B1 VL
B23: antibody D105M (antibody, human IgG1, V domains shown)
VH: B1 VH with A105M
VL: B1 VL
B24: antibody I100A (antibody, human IgG1, V domains shown)
VH: B1 VH with I100A, A105D
VL: B1 VL
B25: antibody D105Y (antibody, human IgG1, V domains shown)
VH: B1 VH with A105Y
VL: B1 VL
B26: antibody D105N (antibody, human IgG1, V domains shown)
VH: B1 VH with A105N
VL: B1 VL
B27: antibody I100S (antibody, human IgG1, V domains shown)
VH: B1 VH with I100S, A105D
VL: B1 VL
B28: antibody D105T (antibody, human IgG1, V domains shown)
VH: B1 VH with A105T
VL: B1 VL
B29: antibody A-3 (antibody, V domains shown)
VH: B1 VH with I100A, A105D
VL: B1 VL with F91M, N92Y, Y94D, T96N
B30: antibody A-6 (antibody, V domains shown)
VH: B1 VH with I100Y, A105D
VL: B1 VL with G28D, I29V, S31T, V34L
B31: antibody A-4 (antibody, V domains shown)
VH: B1 VH with I100Y, A105D
VL: B1 VL with F91M, N92Y, Y94D, T96N
B32: antibody A-1 (antibody, V domains shown)
VH: B1 VH with I50L, I54W, S55H, S57T, T58F, I100A, A105D
VL: B1 VL
B33: antibody A-10 (antibody, V domains shown)
VH: B1 VH with I100Y, A105D
VL: B1 VL with N92Y, Y94D, T96D
B34: antibody A-5 (antibody, V domains shown)
VH: B1 VH with I100A, A105D
VL: B1 VL with G28D, I29V, S31T, V34L
B35: antibody A-7 (antibody, V domains shown)
VH: B1 VH with I100A, A105D
VL: B1 VL with F91L, N92Y, Y94D, T96D
B36: antibody A-2 (antibody, V domains shown)
VH: B1 VH with I50L, I54W, S55H, S57T, T58F, I100Y, A105D
VL: B1 VL
B37: antibody A-8 (antibody, V domains shown)
VH: B1 VH with I100Y, A105D
VL: B1 VL with F91L, N92Y, Y94D, T96D

Target: Recombinant Human FGF-23 (R&D Systems, Cat No. 2604-FG-025/CF) (human) (UniProt Q9GZV9)
Assay: SPR, antibody captured by anti-human IgG, FGF-23 analyte

Row | binding | Binder
1 | binds | B1
2 | binds | B2
3 | binds | B3
4 | binds | B4
5 | binds | B5
6 | binds | B6
7 | binds | B7
8 | binds | B8
9 | binds | B9
10 | binds | B10
11 | binds | B11
12 | binds | B12
13 | binds | B13
14 | binds | B14
15 | binds | B15
16 | binds | B16
17 | binds | B17
18 | binds | B18
19 | binds | B19
20 | binds | B20
21 | binds | B21
22 | binds | B22
23 | binds | B23
24 | binds | B24
25 | binds | B25
26 | binds | B26
27 | binds | B27
28 | binds | B28

Target: Recombinant Human FGF-23 (R&D Systems, Cat No. 2604-FG-025/CF) (human) (UniProt Q9GZV9)
Assay: SPR, antibody captured on Protein A chip, FGF-23 analyte

Row | binding | Binder
29 | binds | B29
30 | binds | B30
31 | binds | B31
32 | binds | B32
33 | binds | B33
34 | binds | B34
35 | binds | B35
36 | binds | B36
37 | binds | B37
